Assay results: PMC6355029, “Structure of the DP1–DP2 PolD complex bound with DNA and its implications for the evolutionary history of DNA and RNA polymerases”

Chains of the proteins cited; added tags and fusions are not shown. Chains listed by the source or under a name are the forms on record and can include a tag or linker.
PolD DP1 H451A (exonuclease-deficient small subunit) + PolD DP2 (large catalytic subunit), one chain, as listed by the source H451A, chain 1 of 3: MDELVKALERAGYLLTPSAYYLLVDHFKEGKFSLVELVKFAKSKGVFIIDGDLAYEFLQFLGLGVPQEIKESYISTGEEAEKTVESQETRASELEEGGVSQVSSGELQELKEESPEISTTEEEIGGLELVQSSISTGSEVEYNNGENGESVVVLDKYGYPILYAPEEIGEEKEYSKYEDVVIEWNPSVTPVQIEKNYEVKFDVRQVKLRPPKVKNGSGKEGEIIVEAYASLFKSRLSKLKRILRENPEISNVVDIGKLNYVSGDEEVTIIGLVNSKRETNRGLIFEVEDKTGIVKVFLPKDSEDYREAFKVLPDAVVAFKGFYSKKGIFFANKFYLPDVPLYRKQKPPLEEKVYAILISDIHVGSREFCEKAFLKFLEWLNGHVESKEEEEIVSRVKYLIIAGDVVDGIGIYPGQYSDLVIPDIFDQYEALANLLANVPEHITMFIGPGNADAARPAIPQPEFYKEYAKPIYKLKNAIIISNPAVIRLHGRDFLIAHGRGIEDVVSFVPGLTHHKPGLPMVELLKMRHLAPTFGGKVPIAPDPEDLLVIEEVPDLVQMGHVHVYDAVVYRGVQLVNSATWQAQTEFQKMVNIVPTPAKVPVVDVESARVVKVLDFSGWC

Columns and labels:
[1] = system: PolD DP1 H451A (exonuclease-deficient small subunit) + PolD DP2 (large catalytic subunit); assay: fluorescence anisotropy; settings: Fluorescence anisotropy: 20 mM sodium succinate pH 6, 100 mM NaCl, 25 C, 5 nM HEX-DNA, PolD up to 600 nM, DP2(1-1061) up to 6 uM; recombinant protein; protein details: N-terminal 14xHis, TEV-cleaved; single-stranded DNA
[2] = system: DP2 (1-1061) (Pyrococcus abyssi); assay: fluorescence anisotropy; settings: up to 6 uM protein, Fluorescence anisotropy: 20 mM sodium succinate pH 6, 100 mM NaCl, 25 C, 5 nM HEX-DNA, PolD up to 600 nM, DP2(1-1061) up to 6 uM, recombinant protein

| Sequence | binding signal (fold weaker Kd than primer-template) [1] | binding result ([2]; single-stranded DNA) | binding result [2] |
| --- | --- | --- | --- |
| AGGTCGTGCACGGCTCGGCCCGGCG [HEX ssDNA (template strand)] | 2.4 | binds more weakly |  |
| CGCCGGGCCGAGCCGTGC / AGGTCGTGCACGGCTCGGCCCGGCG [HEX primer/template] |  |  | binds more weakly |
| CGCCGGGCCGAGCCGTGCACGACCT (double strand) [HEX dsDNA] |  |  | binds more weakly |

For at least one entry, the source does not settle the construct or the ends of the probe. For some of these results: Weaker means in comparison with the reference protein, sequence or condition of that experiment. For some of these results: At least one verdict rests on a figure or table, not on a statement of the authors. For some of these results: The direction of at least one scale is not stated here.
